This note sets out measurements from the supplement of paper PMC6658780.

± gives the standard deviation of the averaged measurements. Some of the results follow. This data set is noisy: repeats of one test often differ as much as different tests do.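 The A. baumannii clinical isolates were selected for resistance to the partner antibiotic; the screen seeks drugs that restore its effect. Background from coloured compounds is removed by subtracting the start-of-incubation reading.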

In the first test the test system is Acinetobacter baumannii NCTC-13301. The experiment in a line: percent growth inhibition of drug alone vs DMSO control; higher = more growth inhibition. The following applies: antibiotic (0.125x MIC): none (0.1% DMSO); 7 µM. As for the experimental part: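 Prestwick drugs tested at 20 uM and 7 uM with an antibiotic at 0.125x MIC (16 mg/L when MIC >128 mg/L) in cation-adjusted Mueller-Hinton broth, 384-well plates, duplicate runs on different days. Percent growth inhibition was computed from OD600 (24 h minus 0 h) relative to DMSO-only wells. Drug + 0.1% DMSO (no antibiotic) wells are also given. Only hits (max corrected inhibition > mean + 3SD) are listed. A. baumannii: NCTC-13301 was used for MEM/CIP/GEN/TGC and WP-487 for colistin. Duplicates with colistin are strongly discordant (run 2 near 100% for most drugs).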
As for `CCCCCC[C@H]1C(=O)O[C@H](C)[C@H](NC(=O)c2cccc(NC=O)c2O)C(=O)O[C@@H](C)[C@@H]1OC(=O)CC(C)C` [Antimycin A], the “percent growth inhibition of drug alone” value was -93.3 ± 4.7%.

Staying with this test, now noted: antibiotic (0.125x MIC): none (0.1% DMSO); 20 µM.
Take `CCCCCC[C@H]1C(=O)O[C@H](C)[C@H](NC(=O)c2cccc(NC=O)c2O)C(=O)O[C@@H](C)[C@@H]1OC(=O)CC(C)C` [Antimycin A]: the “percent growth inhibition of drug alone” value is -103 ± 4.7%.
